# Laboratory results reported in PubChem BioAssay AID2685 (National Center for Advancing Translational Sciences (NCATS), 2010).
# The list shows a part of the results. The main result of the screen is listed elsewhere. These columns were measured beside it and carry no call. Compounds called inactive in the main read-out are mostly missing here. Potencies come from curve fits of mixed quality, noted in brackets.
# Assay: qHTS Assay for Lipid Storage Modulators in Drosophila S3 Cells;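 on cell number change: cells counted by Cell Tracker Red CMTPX staining in the red channel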
# Details: BODIPY lipid droplet fluorescence, 18-24 h; for cell number change: measured here: cell count max response, cells fed with added oleic acid
# Summary of the method: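 Drosophila S3 cells got compounds at several concentrations plus oleic acid (400 uM solution). Laser-scanning cytometry with 488 nm excitation read lipid droplets at 500-530 nm and cells at 575-640 nm. Percent activity was relative to 20 uM Triacsin C.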
# [1] = measured here: lipid fluorescence (Fed channel) AC50, cells fed with added oleic acid
# [2] = measured here: cell number channel AC50, cells fed with added oleic acid
smiles,measurement,setting,value
Cc1ccc(-c2c(C)sc(=NC(=O)c3ccco3)n2C)cc1,cell number change,,-23%
same,AC50,[1],"29.1 µM [falling, single point]"
CCN(CC)c1c([N+](=O)[O-])ncn1C,cell number change,,-16.7%
same,AC50,[1],"23.1 µM [falling, partial curve]"
O=C(Nc1ccccc1C(=O)Nc1nnc(C(F)(F)F)s1)c1ccccc1,cell number change,,-52%
same,AC50,[2],"18.4 µM [falling, single point]"
same,AC50,[1],"23.1 µM [falling, single point]"
O=C(Cn1nnc(-c2ccccc2)n1)NCc1ccco1,cell number change,,-1.65%
same,AC50,[1],"23.1 µM [falling, single point]"
COc1ccc(Cn2c(CCCO)nc3ccccc32)cc1OC,cell number change,,144%
same,AC50,[2],"29.1 µM [rising, single point]"
COc1ccccc1CNC(=O)CN1C(=O)CSc2ccc(S(=O)(=O)N3CCCC3)cc21,cell number change,,12.5%
Cc1csc(NC(=O)c2cc3ccccc3o2)n1,cell number change,,12.8%
same,AC50,[1],"13 µM [falling, partial curve]"
CN(CC(=O)Nc1ccc(F)cc1)C(=O)COC(=O)/C=C/c1ccccc1[N+](=O)[O-],cell number change,,13.1%
same,AC50,[1],"0.00517 µM [rising, full curve, poor fit]"
COC(=O)C(C)Sc1ncnc2c1nnn2-c1ccc(F)cc1 (stereo unspecified),cell number change,,-10.6%
same,AC50,[1],"0.092 µM [falling, full curve, poor fit]"
CN(c1ccccc1)S(=O)(=O)c1ccc(C(=O)Nc2ccncc2)cc1,cell number change,,-12.9%
COc1cc(/C=C/C(O)=C/C(=O)/C=C/c2ccc(O)cc2)ccc1O,cell number change,,-39%
same,AC50,[2],"14.6 µM [falling, partial curve]"
same,AC50,[1],"29.1 µM [falling, single point]"
CC(C)(C)c1ccc(CSc2ccc(S(=O)(=O)N3CCOCC3)cn2)cc1,cell number change,,0.551%
same,AC50,[2],"5.17 µM [falling, single point]"
same,AC50,[1],"7.31 µM [falling, partial curve, poor fit]"
CC(Sc1nnc(-c2cccs2)n1N)C(=O)NCC1CCCO1 (stereo unspecified),cell number change,,1.68%
same,AC50,[1],"32.6 µM [falling, partial curve, poor fit]"
CCCc1cc(NCc2ccccn2)n2c(nc3ccccc32)c1C#N,AC50,[1],"0.00461 µM [rising, full curve, poor fit]"
Cc1cc(C)cc(NC(=O)c2nnn(Cc3cc(C)ccc3C)c2N)c1,AC50,[1],"1.3 µM [rising, partial curve]"
O=C(CNS(=O)(=O)c1cccs1)N1CCCCC1,cell number change,,0.87%
O=C(COc1nc2ccccc2nc1N1CCOCC1)N1CCc2ccccc21,cell number change,,0.136%
CCN(Cc1cc2ccc(C)cc2[nH]c1=O)C(=O)c1cccnc1,cell number change,,31.6%
same,AC50,[2],"0.461 µM [rising, full curve]"
same,AC50,[1],"1.3 µM [rising, full curve, poor fit]"
C#Cc1ccc(C(=O)Nc2cc(C(N)=O)ccc2N2CCOCC2)cc1,cell number change,,-19.2%
same,AC50,[1],"6.51 µM [rising, partial curve, poor fit]"
O=c1[nH]cccc1-c1nc2ccccc2n1Cc1cccc(Cl)c1,cell number change,,15.6%
same,AC50,[1],"32.6 µM [rising, single point]"
N#CCSc1nc2c(cc1C#N)CCCC2,cell number change,,60.3%
same,AC50,[2],"29.1 µM [rising, single point]"
same,AC50,[1],"4.11 µM [rising, single point]"
CN(C)S(=O)(=O)c1ccc2nc(NC(=O)c3cccnc3)sc2c1,cell number change,,-2.86%
same,AC50,[2],"0.651 µM [rising, single point]"
Cc1cccc(NC(=O)c2cnn3ccccc23)c1C,cell number change,,17.9%
same,AC50,[1],"29.1 µM [rising, single point]"
Cc1ccc(S(=O)(=O)NCC2COc3ccccc3O2)cc1 (stereo unspecified),cell number change,,5.24%
same,AC50,[1],"3.66 µM [rising, partial curve]"
COc1ccc(NC(=O)CN(C)C(=O)c2cccc(S(=O)(=O)N3CC4(C)CC3CC(C)(C)C4)c2)cc1 (stereo unspecified),cell number change,,-84.1%
same,AC50,[2],"29.1 µM [falling, single point]"
CC1=C(C#N)C(NC(=O)c2cccc(Cl)c2)(C(F)(F)F)C(=O)N1 (stereo unspecified),cell number change,,93.9%
same,AC50,[2],"20.6 µM [rising, single point]"
same,AC50,[1],"5.17 µM [falling, full curve, poor fit]"
C/C(=N\O)c1ccccc1C(=O)O,cell number change,,-50.8%
same,AC50,[2],"29.1 µM [falling, single point]"
COc1ccc(N(C(=O)Cc2cccs2)C(C(=O)NC2CCCC2)c2ccncc2)cc1 (stereo unspecified),cell number change,,-15.4%
CC1(O)CC(c2ccc(Cl)cc2)=NN1C(=O)c1ccc(Cl)cc1 (stereo unspecified),cell number change,,15.2%
same,AC50,[1],"29.1 µM [falling, single point]"
CC1CCN(S(=O)(=O)c2ccc(NC(=O)C3CC(=O)N(c4ccccc4)C3)cc2)CC1 (stereo unspecified),AC50,[1],"0.326 µM [falling, full curve, poor fit]"
COc1cccc(C(=O)NCC2CCCN(C3CCCCC3)C2)c1OC (stereo unspecified),cell number change,,2.2%
same,AC50,[1],"6.51 µM [falling, single point]"
CCc1ccc(C2NC(C(=O)O)CS2)cc1 (stereo unspecified),cell number change,,-40.5%
same,AC50,[2],"29.1 µM [falling, single point]"
CN(c1ccccc1)S(=O)(=O)c1ccc(C(=O)NNC(=O)c2ccccc2F)cc1,cell number change,,-1.88%
same,AC50,[1],"20.6 µM [rising, single point]"
Cc1ccc(OCC(=O)NCCNC(=O)c2ccccn2)cc1,cell number change,,-25.7%
CCCCn1c(C)cc2c(c1=O)C1O[C@](c3ccsc3)(Cc3ccccc31)O2,cell number change,,-12.9%
same,AC50,[1],"1.19 µM [rising, single point]"
Cc1ccc(-c2nc3ccccc3n2C)o1,cell number change,,170%
same,AC50,[2],"9.2 µM [rising, partial curve]"
same,AC50,[1],"18.4 µM [rising, partial curve]"
COc1cc(C[C@H](C)[C@H](C)Cc2ccc3c(c2)OCO3)ccc1O,cell number change,,-32.8%
same,AC50,[2],"16.4 µM [falling, single point]"
CCOCCCn1c(=S)[nH]c2cc(C(=O)N3CCN(C)CC3)ccc2c1=O,cell number change,,-11.2%
same,AC50,[1],"5.8 µM [falling, partial curve]"
COc1ccc(N/C=C\C(=O)c2ccc3c(c2)OCO3)cc1OC,cell number change,,-40.2%
same,AC50,[1],"0.00411 µM [rising, full curve, poor fit]"

# Fetched one by one from the list above:
smiles,measurement,setting,value
Cc1ccc(-c2c(C)sc(=NC(=O)c3ccco3)n2C)cc1,cell number change,,-23%
CC(Sc1nnc(-c2cccs2)n1N)C(=O)NCC1CCCO1 (stereo unspecified),cell number change,,1.68%
O=C(Nc1ccccc1C(=O)Nc1nnc(C(F)(F)F)s1)c1ccccc1,cell number change,,-52%
O=C(Cn1nnc(-c2ccccc2)n1)NCc1ccco1,AC50,[1],"23.1 µM [falling, single point]"
CCc1ccc(C2NC(C(=O)O)CS2)cc1 (stereo unspecified),AC50,[2],"29.1 µM [falling, single point]"
